Patent US20110105472A1, “Diaminopyrimidines as crop protection agents” (Bayer CropScience AG, priority 2008, published 2011)
Some entries share one result that the patent states for a list of compounds.

Key:
[1] = test system: apple scab pathogen Venturia inaequalis; assay: Venturia test (apple)/protective; format: in vivo; details: active compound concentration 100 ppm, protective, evaluation 10 days after inoculation
[2] = test system: Puccinia recondita; assay: Puccinia test (wheat)/protective; details: active compound concentration 1000 ppm, protective, evaluation 10 days after inoculation
[3] = test system: Leptosphaeria nodorum; assay: Leptosphaeria nodorum test (wheat)/protective; format: in vivo; details: active compound concentration 1000 ppm, protective, evaluation 10 days after inoculation
[4] = test system: Fusarium nivale (var. majus); assay: Fusarium nivale (var. majus) test (wheat)/protective; format: in vivo; details: active compound concentration 1000 ppm, protective, evaluation 6 days after inoculation
[5] = test system: Sphaerotheca fuliginea; assay: Sphaerotheca test (cucumber)/protective; format: in vivo; details: active compound concentration 500 ppm, protective, evaluation 7 days after inoculation
[6] = test system: Alternaria solani; assay: Alternaria test (tomato)/protective; format: in vivo; details: active compound concentration 500 ppm, protective, evaluation 7 days after inoculation

CC(=O)N1CCc2cc(Nc3ncc(Br)c(NC4CCC4)n3)ccc21 [Compound 17]
efficacy [1]: ≥ 70%
efficacy [2]: ≥ 70%

NS(=O)(=O)c1cccc(Nc2ncc(Cl)c(NC3CCC3)n2)c1 [Compound 23]
efficacy [3]: ≥ 70%
efficacy [4]: ≥ 70%
efficacy [2]: ≥ 70%

COc1cc(Nc2ncc(Br)c(NC3CCC3)n2)ccc1F [Compound 31]
efficacy [3]: ≥ 70%
efficacy [5]: ≥ 70%
efficacy [4]: ≥ 70%

CCOc1ccc(Nc2ncc(Br)c(NC3CCC3)n2)cc1 [Compound 35]
efficacy [3]: ≥ 70%
efficacy [5]: ≥ 70%

CC(C)c1ccc(Nc2ncc(Br)c(NC3CCC3)n2)cc1 [Compound 40]
efficacy [3]: ≥ 70%
efficacy [4]: ≥ 70%
efficacy [2]: ≥ 70%
efficacy [6]: ≥ 70%

CC1CC(C)CN(c2cccc(Nc3ncc(Cl)c(NC4CCC4)n3)c2)C1 (stereo not drawn) [Compound 51]
efficacy [5]: ≥ 70%
efficacy [2]: ≥ 70%
efficacy [6]: ≥ 70%

O=C1CCCN1c1ccc(Nc2ncc(C(F)(F)F)c(NC3CCC3)n2)cc1 [Compound 56]
efficacy [1]: ≥ 70%
efficacy [2]: ≥ 70%
efficacy [6]: ≥ 70%

CN1CCN(c2cccc(Nc3ncc(Br)c(NC4CCC4)n3)c2)C1=O [Compound 59]
efficacy [3]: ≥ 70%
efficacy [5]: ≥ 70%
efficacy [4]: ≥ 70%
efficacy [2]: ≥ 70%

COc1cc(Nc2ncc(Br)c(NC3CCC3)n2)ccc1NS(C)(=O)=O [Compound 84]
efficacy [1]: ≥ 70%
efficacy [5]: ≥ 70%
efficacy [2]: ≥ 70%

CCN(C(C)=O)c1ccc(Nc2ncc(Br)c(NC3CCC3)n2)cc1 [Compound 93]
efficacy [2]: ≥ 70%
efficacy [6]: ≥ 70%

CCC(=O)Nc1cccc(Nc2ncc(Br)c(NC3CCC3)n2)c1 [Compound 97]
efficacy [2]: ≥ 70%
efficacy [6]: ≥ 70%

CC(C)(C)NC(=O)c1ccc(Nc2ncc(Br)c(NC3CCC3)n2)cc1 [Compound 102]
efficacy [2]: ≥ 70%
efficacy [6]: ≥ 70%

CC(C)(C)C(=O)Cc1ccc(Nc2ncc(Br)c(NC3CCC3)n2)cc1 [Compound 104]
efficacy [1]: ≥ 70%
efficacy [5]: ≥ 70%
efficacy [2]: ≥ 70%
efficacy [6]: ≥ 70%

COc1ccc(Nc2ncc(Cl)c(NC3CCC3)n2)cc1 [Compound 110]
efficacy [5]: ≥ 70%
efficacy [4]: ≥ 70%
efficacy [6]: ≥ 70%

N#Cc1ccc(Nc2ncc(Cl)c(NC3CCC3)n2)cc1 [Compound 111]
efficacy [1]: ≥ 70%
efficacy [4]: ≥ 70%

CC(C)(C)C(=O)Nc1ccc(Nc2ncc(Cl)c(NC3CCC3)n2)cc1 [Compound 116]
efficacy [4]: ≥ 70%
efficacy [6]: ≥ 70%

CC(=O)Nc1ccc(Nc2ncc(Cl)c(NC3CCC3)n2)cc1 [Compound 117]
efficacy [2]: ≥ 70%
efficacy [6]: ≥ 70%

CNC(=O)c1ccc(Nc2ncc(Cl)c(NC3CCC3)n2)cc1 [Compound 126]
efficacy [4]: ≥ 70%

COC(=O)Nc1ccc(Nc2ncc(Cl)c(NC3CCC3)n2)cc1 [Compound 135]
efficacy [3]: ≥ 70%
efficacy [4]: ≥ 70%
efficacy [6]: ≥ 70%

CCOC(=O)Nc1cccc(Nc2ncc(Cl)c(NC3CCC3)n2)c1 [Compound 137]
efficacy [4]: ≥ 70%
efficacy [6]: ≥ 70%

CC1(C(=O)Nc2cccc(Nc3ncc(Cl)c(NC4CCC4)n3)c2)CC1 [Compound 140]
efficacy [3]: ≥ 70%
efficacy [4]: ≥ 70%

CC(C)(CF)C(=O)Nc1cccc(Nc2ncc(Cl)c(NC3CCC3)n2)c1 [Compound 141]
efficacy [2]: ≥ 70%
efficacy [6]: ≥ 70%

O=S(=O)(c1cccc(Nc2ncc(Br)c(NC3CCC3)n2)c1)N1CCOCC1 [Compound 147]
efficacy [3]: ≥ 70%

CN(C=O)c1ccc(Nc2ncc(Br)c(NC3CCC3)n2)cc1 [Compound 153]
efficacy [2]: ≥ 70%
efficacy [6]: ≥ 70%

CC(C)(CF)C(=O)Nc1cccc(Nc2ncc(Br)c(NC3CCC3)n2)c1 [Compound 166]
efficacy [3]: ≥ 70%
efficacy [4]: ≥ 70%
efficacy [2]: ≥ 70%

O=C(Nc1cccc(Nc2ncc(Br)c(NC3CCC3)n2)c1)c1ccco1 [Compound 167]
efficacy [3]: ≥ 70%
efficacy [4]: ≥ 70%
efficacy [2]: ≥ 70%

CSc1cc(Nc2ncc(Br)c(NC3CCC3)n2)ccc1C [Compound 175]
efficacy [3]: ≥ 70%
efficacy [5]: ≥ 70%
efficacy [4]: ≥ 70%
efficacy [2]: ≥ 70%

CCNC(=O)c1cccc(Nc2ncc(Br)c(NC3CCC3)n2)c1 [Compound 190]
efficacy [2]: ≥ 70%
efficacy [6]: ≥ 70%

CC(=O)Nc1cc(Nc2ncc(Br)c(NC3CCC3)n2)ccc1C [Compound 200]
efficacy [2]: ≥ 70%
efficacy [6]: ≥ 70%

Cc1cc(Nc2ncc(Br)c(NC3CCC3)n2)ccc1O [Compound 201]
efficacy [2]: ≥ 70%
efficacy [6]: ≥ 70%

O=C(c1ccc(Nc2ncc(Cl)c(NC3CCC3)n2)cc1)N1CCCCC1 [Compound 203]
efficacy [2]: ≥ 70%
efficacy [6]: ≥ 70%

CC(C)c1cccc(Nc2ncc(Br)c(NC3CCC3)n2)c1 [Compound 205]
efficacy [5]: ≥ 70%
efficacy [2]: ≥ 70%
efficacy [6]: ≥ 70%

COc1ccc(Nc2ncc(Br)c(NC3CCC3)n2)cc1 [Compound 208]
efficacy [5]: ≥ 70%
efficacy [6]: ≥ 70%

CC(=O)N(c1ccc(Nc2ncc(Br)c(NC3CCC3)n2)cc1)C1CC1 [Compound 209]
efficacy [3]: ≥ 70%
efficacy [4]: ≥ 70%
efficacy [2]: ≥ 70%

O=C1CCCN1c1cc(Nc2ncc(Cl)c(NC3CCC3)n2)ccc1F [Compound 212]
efficacy [1]: ≥ 70%
efficacy [5]: ≥ 70%
efficacy [2]: ≥ 70%
efficacy [6]: ≥ 70%

N#CCc1ccc(Nc2ncc(Cl)c(NC3CCC3)n2)cc1 [Compound 233]
efficacy [1]: ≥ 70%
efficacy [5]: ≥ 70%
efficacy [2]: ≥ 70%

C=CCNC(=O)c1ccc(Nc2ncc(C(F)(F)F)c(NC3CCC3)n2)cc1 [Compound 239]
efficacy [1]: ≥ 70%
efficacy [2]: ≥ 70%
efficacy [6]: ≥ 70%

C=CCNC(=O)c1ccc(Nc2ncc(Cl)c(NC3CCC3)n2)cc1 [Compound 241]
efficacy [2]: ≥ 70%
efficacy [6]: ≥ 70%

CN(C)C(=O)c1cccc(Nc2ncc(Cl)c(NC3CCC3)n2)c1 [Compound 247]
efficacy [5]: ≥ 70%
efficacy [2]: ≥ 70%
efficacy [6]: ≥ 70%

CCc1cccc(Nc2ncc(Cl)c(NC3CCC3)n2)c1 [Compound 251]
efficacy [5]: ≥ 70%
efficacy [6]: ≥ 70%

CC(=O)CCc1cccc(Nc2ncc(Cl)c(NC3CCC3)n2)c1 [Compound 256]
efficacy [1]: ≥ 70%
efficacy [5]: ≥ 70%
efficacy [6]: ≥ 70%

CC(=O)N(C)c1cccc(Nc2ncc(Cl)c(NC3CCC3)n2)c1 [Compound 261]
efficacy [1]: ≥ 70%
efficacy [5]: ≥ 70%
efficacy [6]: ≥ 70%

CS(=O)(=O)c1cccc(Nc2ncc(C(F)(F)F)c(NC3CCC3)n2)c1 [Compound 264]
efficacy [5]: ≥ 70%
efficacy [2]: ≥ 70%
efficacy [6]: ≥ 70%

CS(=O)(=O)c1cccc(Nc2ncc(Br)c(NC3CCC3)n2)c1 [Compound 265]
efficacy [1]: ≥ 70%
efficacy [2]: ≥ 70%
efficacy [6]: ≥ 70%
